We go through 18 targets from the supplement of paper PMC10849652.

Amino acid sequences for entries named in this document (tags omitted). A change or cut given only in a name is not applied to a line headed by its entry.
UniProt Q9Y303: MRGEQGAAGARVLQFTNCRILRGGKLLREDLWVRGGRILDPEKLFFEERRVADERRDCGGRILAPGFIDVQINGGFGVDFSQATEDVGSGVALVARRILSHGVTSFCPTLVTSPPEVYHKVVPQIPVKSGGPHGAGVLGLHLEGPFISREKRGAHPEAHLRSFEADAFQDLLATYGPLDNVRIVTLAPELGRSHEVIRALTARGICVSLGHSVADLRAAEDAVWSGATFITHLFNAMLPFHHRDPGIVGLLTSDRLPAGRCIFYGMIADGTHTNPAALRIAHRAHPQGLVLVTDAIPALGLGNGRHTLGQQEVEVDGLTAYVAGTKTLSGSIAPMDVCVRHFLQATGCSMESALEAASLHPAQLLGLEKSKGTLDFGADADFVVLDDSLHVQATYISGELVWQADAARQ
UniProt Q6RW13: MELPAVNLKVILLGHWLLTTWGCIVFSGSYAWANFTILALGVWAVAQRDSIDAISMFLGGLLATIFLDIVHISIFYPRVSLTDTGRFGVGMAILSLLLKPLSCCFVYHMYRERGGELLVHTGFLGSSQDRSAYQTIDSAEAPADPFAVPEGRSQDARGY
UniProt Q9NZD4: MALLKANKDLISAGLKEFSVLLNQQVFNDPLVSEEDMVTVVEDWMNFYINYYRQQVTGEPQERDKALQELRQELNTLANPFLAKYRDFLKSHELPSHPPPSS
UniProt Q9UEY8: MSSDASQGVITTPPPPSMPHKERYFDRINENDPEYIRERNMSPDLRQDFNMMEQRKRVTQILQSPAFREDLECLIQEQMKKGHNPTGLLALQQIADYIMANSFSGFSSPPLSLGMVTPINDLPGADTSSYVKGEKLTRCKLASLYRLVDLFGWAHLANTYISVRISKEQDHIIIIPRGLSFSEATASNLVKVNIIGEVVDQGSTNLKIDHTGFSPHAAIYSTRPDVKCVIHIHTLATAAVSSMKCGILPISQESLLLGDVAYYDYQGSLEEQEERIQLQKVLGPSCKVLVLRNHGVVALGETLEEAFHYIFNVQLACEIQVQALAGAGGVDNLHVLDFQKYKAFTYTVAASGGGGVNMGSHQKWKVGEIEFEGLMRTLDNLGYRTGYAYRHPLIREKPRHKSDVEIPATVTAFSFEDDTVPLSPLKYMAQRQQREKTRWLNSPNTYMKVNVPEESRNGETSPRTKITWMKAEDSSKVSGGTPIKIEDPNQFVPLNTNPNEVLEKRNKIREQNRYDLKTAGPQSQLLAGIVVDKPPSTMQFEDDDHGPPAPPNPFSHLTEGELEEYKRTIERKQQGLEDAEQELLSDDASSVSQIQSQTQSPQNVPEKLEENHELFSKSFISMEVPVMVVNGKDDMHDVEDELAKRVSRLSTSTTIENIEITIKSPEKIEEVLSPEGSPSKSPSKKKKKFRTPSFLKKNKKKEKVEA
UniProt Q6QNK2: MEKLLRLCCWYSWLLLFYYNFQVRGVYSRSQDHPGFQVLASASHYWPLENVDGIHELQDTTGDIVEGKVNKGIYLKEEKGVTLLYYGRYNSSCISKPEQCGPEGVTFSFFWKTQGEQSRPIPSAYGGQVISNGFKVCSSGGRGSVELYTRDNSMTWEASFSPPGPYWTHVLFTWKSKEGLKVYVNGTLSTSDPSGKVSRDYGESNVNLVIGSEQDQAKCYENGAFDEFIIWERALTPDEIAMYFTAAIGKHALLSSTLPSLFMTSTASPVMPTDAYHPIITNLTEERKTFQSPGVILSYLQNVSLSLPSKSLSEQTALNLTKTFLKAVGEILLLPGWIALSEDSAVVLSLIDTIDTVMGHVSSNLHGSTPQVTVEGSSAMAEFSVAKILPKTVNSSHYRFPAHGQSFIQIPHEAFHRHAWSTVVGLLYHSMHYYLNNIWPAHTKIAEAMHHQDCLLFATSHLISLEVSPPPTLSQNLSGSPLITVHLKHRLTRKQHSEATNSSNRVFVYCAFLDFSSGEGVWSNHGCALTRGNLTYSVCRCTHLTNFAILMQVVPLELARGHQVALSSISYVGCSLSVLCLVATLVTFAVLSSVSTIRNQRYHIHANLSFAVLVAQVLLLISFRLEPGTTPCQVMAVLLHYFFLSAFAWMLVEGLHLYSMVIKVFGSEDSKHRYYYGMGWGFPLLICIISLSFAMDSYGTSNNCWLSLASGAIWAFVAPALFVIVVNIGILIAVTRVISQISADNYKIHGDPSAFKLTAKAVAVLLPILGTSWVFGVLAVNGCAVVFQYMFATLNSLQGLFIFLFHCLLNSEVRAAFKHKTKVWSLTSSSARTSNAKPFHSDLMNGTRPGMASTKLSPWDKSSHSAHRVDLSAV
UniProt O75342: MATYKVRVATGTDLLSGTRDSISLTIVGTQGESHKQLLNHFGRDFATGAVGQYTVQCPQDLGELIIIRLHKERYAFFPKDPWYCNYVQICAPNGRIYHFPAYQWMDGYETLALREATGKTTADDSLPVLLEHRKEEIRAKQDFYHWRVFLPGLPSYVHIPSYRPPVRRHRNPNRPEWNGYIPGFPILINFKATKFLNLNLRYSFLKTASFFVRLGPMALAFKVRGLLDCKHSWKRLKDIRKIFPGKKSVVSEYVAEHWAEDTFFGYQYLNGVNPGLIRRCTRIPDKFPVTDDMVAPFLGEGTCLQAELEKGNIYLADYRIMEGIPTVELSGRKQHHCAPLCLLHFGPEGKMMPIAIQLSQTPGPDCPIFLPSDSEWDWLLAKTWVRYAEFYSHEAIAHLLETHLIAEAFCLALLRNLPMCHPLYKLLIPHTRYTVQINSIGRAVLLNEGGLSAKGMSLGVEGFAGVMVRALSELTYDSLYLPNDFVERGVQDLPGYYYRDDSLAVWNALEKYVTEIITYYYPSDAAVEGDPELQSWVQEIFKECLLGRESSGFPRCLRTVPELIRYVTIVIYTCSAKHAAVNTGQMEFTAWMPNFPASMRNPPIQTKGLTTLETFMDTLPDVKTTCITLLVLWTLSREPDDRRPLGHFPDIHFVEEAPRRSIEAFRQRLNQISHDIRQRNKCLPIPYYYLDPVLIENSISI
UniProt P51828: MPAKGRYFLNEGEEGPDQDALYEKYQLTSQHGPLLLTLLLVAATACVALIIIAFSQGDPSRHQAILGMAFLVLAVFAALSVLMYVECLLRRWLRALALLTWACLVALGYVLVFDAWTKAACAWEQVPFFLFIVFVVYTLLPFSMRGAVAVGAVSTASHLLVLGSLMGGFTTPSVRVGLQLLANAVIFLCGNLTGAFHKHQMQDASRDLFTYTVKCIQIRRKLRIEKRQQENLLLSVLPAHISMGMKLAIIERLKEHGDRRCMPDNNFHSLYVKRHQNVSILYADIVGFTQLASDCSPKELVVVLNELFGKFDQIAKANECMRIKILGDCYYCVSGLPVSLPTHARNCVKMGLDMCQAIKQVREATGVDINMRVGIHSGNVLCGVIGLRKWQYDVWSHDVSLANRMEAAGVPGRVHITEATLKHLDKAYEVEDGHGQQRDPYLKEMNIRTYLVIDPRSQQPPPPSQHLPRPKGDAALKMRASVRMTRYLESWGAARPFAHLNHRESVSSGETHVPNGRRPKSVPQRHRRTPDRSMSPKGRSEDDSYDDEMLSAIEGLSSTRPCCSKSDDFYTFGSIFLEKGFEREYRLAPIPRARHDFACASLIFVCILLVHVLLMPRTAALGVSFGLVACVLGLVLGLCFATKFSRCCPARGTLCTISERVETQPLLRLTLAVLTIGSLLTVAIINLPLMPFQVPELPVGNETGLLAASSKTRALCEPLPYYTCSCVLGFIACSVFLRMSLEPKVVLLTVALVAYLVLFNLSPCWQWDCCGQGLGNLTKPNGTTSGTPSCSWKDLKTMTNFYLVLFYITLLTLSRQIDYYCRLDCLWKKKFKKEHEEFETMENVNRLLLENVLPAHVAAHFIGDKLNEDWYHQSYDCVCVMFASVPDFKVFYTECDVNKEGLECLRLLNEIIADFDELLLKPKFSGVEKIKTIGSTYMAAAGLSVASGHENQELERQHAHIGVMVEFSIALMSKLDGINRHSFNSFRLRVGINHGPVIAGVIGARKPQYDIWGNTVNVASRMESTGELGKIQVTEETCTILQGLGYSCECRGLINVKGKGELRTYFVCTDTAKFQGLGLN
UniProt Q9H2P0: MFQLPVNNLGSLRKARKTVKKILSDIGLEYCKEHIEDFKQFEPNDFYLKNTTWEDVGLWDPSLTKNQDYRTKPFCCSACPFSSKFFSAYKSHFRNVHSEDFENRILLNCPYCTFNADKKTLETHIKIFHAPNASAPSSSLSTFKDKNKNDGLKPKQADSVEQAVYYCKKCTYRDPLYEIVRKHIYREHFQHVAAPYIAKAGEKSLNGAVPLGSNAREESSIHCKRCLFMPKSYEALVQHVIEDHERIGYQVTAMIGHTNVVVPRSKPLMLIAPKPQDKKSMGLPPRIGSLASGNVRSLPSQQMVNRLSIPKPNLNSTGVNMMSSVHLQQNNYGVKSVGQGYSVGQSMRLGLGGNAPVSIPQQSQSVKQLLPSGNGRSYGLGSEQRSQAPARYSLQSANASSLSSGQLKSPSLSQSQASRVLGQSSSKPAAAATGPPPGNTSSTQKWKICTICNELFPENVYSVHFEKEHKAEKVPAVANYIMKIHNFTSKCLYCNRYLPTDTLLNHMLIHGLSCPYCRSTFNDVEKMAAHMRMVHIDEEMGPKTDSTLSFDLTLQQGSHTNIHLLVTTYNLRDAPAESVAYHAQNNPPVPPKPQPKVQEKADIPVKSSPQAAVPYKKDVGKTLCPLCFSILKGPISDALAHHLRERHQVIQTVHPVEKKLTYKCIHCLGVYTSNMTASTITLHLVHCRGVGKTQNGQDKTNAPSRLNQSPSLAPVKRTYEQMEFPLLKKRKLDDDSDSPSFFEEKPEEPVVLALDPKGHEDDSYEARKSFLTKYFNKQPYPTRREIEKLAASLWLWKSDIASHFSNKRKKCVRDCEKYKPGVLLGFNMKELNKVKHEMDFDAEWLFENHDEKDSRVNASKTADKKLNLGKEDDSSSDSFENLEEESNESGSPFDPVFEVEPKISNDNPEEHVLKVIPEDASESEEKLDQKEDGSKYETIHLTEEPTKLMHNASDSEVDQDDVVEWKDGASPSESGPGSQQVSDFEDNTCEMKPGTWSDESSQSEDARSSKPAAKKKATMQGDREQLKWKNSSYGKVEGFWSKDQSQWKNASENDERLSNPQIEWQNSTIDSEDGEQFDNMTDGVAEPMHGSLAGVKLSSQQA
UniProt Q6NS38: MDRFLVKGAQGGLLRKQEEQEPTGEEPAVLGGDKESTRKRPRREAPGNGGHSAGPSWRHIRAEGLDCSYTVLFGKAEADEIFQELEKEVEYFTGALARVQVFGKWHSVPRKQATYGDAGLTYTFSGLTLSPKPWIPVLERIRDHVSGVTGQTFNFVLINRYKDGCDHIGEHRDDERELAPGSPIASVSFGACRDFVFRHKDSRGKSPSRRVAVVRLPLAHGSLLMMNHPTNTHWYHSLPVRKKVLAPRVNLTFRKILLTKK
UniProt Q9NP73: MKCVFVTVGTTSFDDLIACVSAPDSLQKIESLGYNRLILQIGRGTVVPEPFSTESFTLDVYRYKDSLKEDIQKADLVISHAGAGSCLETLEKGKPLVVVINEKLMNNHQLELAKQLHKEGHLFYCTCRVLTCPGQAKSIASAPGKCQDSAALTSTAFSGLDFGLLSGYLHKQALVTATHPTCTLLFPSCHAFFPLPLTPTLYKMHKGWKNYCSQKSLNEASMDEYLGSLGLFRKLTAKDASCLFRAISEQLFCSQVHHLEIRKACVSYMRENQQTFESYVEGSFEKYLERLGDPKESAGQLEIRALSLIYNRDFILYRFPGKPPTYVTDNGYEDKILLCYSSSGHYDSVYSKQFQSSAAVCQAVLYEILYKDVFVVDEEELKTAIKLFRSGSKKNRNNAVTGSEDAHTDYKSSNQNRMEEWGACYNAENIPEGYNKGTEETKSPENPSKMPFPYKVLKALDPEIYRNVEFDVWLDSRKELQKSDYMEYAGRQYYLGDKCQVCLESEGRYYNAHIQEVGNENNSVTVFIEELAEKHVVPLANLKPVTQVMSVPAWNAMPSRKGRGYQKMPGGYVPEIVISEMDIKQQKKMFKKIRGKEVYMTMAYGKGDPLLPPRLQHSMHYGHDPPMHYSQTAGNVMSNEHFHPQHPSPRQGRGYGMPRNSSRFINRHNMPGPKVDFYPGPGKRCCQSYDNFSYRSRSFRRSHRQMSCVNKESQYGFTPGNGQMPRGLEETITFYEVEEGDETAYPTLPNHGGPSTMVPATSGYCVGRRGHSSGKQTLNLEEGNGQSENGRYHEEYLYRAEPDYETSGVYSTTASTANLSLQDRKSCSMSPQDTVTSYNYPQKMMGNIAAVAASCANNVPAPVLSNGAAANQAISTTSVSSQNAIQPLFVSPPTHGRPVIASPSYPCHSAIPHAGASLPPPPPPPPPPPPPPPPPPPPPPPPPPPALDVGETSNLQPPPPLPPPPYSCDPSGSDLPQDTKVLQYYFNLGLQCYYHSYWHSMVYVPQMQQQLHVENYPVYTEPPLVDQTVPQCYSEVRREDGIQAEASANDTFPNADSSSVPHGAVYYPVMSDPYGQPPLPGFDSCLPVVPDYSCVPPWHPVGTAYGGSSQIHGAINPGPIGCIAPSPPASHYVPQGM

This is one part of the list.

Compound in the first assay: C#Cc1cccc(Nc2ncnc3cc(OCCOC)c(OCCOC)cc23)c1 [erlotinib]
The experiment in a line: log2 fold change, soluble protein after heating vs DMSO (PISA); higher = thermal stabilisation; K562 cells, 10 uM, 30 min; active = over 0.2 and 3.5 SD of the protein, either way, in both replicates (recomputed). Put shortly:
(§1)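 Aliquots of K562 cells (2×10^6 cells/mL) treated with 10 μM compound for 30 min were heated for 3 min over 48°C-58°C. After pooling and extraction in PBS with 0.5% NP-40 at 4°C, soluble protein from a 21,000xg, 90 min spin was quantified by TMTpro 16plex LC-MS/MS with channel sums equalised. Thermal stability is expressed against control samples, from duplicates, as a log2 fold change.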
Take AMDHD2 (UniProt Q9Y303): the log2 fold change is inactive: 0.005.

As for AGAP1 (UniProt Q9UPQ3), the log2 fold change is inactive: 0.014.

Take AGTRAP isoform 2 (UniProt Q6RW13): the log2 fold change was inactive: 0.071.

As to AGPAT4 (UniProt Q9NRZ5), the log2 fold change is inactive: -0.047.

With AHSP (UniProt Q9NZD4), the log2 fold change was inactive: -0.043.

Compound in the next assay: C/C(=N\NC(=O)C1=CC(=CC=C1)S(=O)(=O)N2CCOCC2)/C3=C(C=CC(=C3)Cl)O
The assay is described as above. Put shortly: as §1
Take AIG1 (UniProt Q9NVV5): the log2 fold change was inactive: -0.062.

Regarding ADD3 isoform 2 (UniProt Q9UEY8), the log2 fold change was inactive: 0.171.

Regarding AMBRA1 isoform 5 (UniProt Q9C0C7), the log2 fold change was inactive: 0.068.

ALDH2 isoform 2 (UniProt P05091): the log2 fold change is inactive: -0.197.

Regarding ADGRD1 isoform 4 (UniProt Q6QNK2), the log2 fold change is inactive: 0.12.

Turning to ALOX12B (UniProt O75342), the log2 fold change is inactive: 0.038.

Consider ADCY7 (UniProt P51828), for which the log2 fold change is inactive: 0.403.

For ADNP (UniProt Q9H2P0), the log2 fold change is inactive: -0.036.

Regarding AKR1D1 (UniProt P51857), the log2 fold change was inactive: -0.008.

For ALKBH2 (UniProt Q6NS38), the log2 fold change was inactive: -0.135.

Take ALG13 isoform 2 (UniProt Q9NP73): the log2 fold change is inactive: 0.182.

As to ALDOC (UniProt J3QKP5), the log2 fold change was inactive: -0.228.

Consider ALKBH1 (UniProt Q13686), for which the log2 fold change is inactive: -0.301.
